In assay [1] the target is T1, IFN response factor 4 (IRF4), endogenous (human (endogenous in MM1.S and primary MM cells)) (UniProt Q15306).
T1 sequence: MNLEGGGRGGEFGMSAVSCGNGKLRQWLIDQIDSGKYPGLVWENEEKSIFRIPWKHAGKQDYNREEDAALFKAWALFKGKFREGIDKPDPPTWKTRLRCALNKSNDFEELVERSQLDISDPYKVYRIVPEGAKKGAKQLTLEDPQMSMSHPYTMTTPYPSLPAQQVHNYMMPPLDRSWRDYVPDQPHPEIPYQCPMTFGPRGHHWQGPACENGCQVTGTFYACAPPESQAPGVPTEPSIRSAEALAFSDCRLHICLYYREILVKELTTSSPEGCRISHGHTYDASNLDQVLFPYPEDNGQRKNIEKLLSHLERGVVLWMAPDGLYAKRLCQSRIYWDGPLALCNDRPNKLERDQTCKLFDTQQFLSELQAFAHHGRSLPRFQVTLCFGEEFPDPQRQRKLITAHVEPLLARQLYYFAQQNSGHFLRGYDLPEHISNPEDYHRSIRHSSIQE
The experiment in a line: proximity ligation; fixed parental MM1.S cells, untreated or with LPS (5 μg/mL); goat anti-IRF4 and mouse anti-HDAC11, Duolink kit, confocal microscopy.

The target of assay [2] is T1, IFN response factor 4 (IRF4), endogenous (human (endogenous in MM1.S and primary MM cells)). The experiment in a line: proximity ligation; primary MM cells from patient samples, cultured with the patient's serum, untreated or with LPS (5 μg/mL, 24 hours).
The target is the same in assay [3]. Briefly: proximity ligation; fixed MM1.S cells transfected with WT or enzymatically inactive HDAC11 or empty vector; goat anti-IRF4 and mouse anti-HDAC11, Duolink kit.
Assay [4] has the same target. Briefly: co-IP; reciprocal co-IP from MM1.S cell lines stably transfected with HA-tagged WT or enzyme-inactive HDAC11; IP with anti-IRF4 and anti-HA, rabbit IgG as isotype control; protein A/G PLUS-Agarose.
Assay [5] has as its target T2, HA-tagged WT HDAC11 (HDAC11^wt.HA) (UniProt Q96DB2).
T2 sequence: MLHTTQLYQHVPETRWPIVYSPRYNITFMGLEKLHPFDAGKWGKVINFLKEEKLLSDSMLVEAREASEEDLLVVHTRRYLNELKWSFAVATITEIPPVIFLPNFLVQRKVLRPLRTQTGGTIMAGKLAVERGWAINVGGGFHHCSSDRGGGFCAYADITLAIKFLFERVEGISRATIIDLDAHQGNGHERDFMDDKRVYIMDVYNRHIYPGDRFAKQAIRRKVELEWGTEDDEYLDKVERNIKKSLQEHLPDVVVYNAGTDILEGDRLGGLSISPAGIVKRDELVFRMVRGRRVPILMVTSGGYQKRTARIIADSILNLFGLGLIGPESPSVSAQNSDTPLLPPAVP
The description is as above.

Results are given in words; binding and its absence hold for the method and conditions named. Binding seen in cells or lysates may run through a third protein. Some results given as binding are weak or reduced against the parent protein; the word gives no strength. Sequences can lack the tags named with a protein.

B1: histone/protein deacetylase 11 (HDAC11), endogenous (enzyme, UniProt Q96DB2 1-347, looked up)
chain: T2 sequence
notes: HDAC11, endogenous in human multiple myeloma cells (MM1.S line and primary patient MM cells), detected by mouse anti-HDAC11 in PLA; source: endogenous, MM1.S cells; endogenous, patient-derived primary MM cells
For the molecule B1, the binding entry in assay [1] and in assay [2] was “binds” each time.

B2: HA-tagged WT HDAC11 (HDAC11^wt.HA) (enzyme, UniProt Q96DB2 1-347)
chain: T2 sequence
Consider B2, for which the binding entry in assay [3] and in assay [4] was “binds” throughout.

B3: IFN response factor 4 (IRF4), endogenous (protein, UniProt Q15306 1-451)
chain: T1 sequence
In the case of B3, the binding entry in assay [5] was “binds”.
